Measured values: PubChem BioAssay AID1347076 (National Center for Advancing Translational Sciences (NCATS), 2019)
About 13,000 (3.2%) of roughly 400,000 compounds were called active. The shares of active, inactive and inconclusive entries below differ from those in the screen. Calls follow the shape of the dose curve; as a rule, active = well fitted cell-killing curve with a large enough effect; inconclusive = small, poorly fitted or top-dose-only effect, or effect the other way; inactive = flat fitted curve, though single readings scatter. A potency beside an inconclusive call is a rough fit, not a confirmed value.

Experiment: qHTS assay for MDR1-selective chemotherapeutics: Primary screen using the drug-selected MDR subline cells KB-V1; also: nearly all actives have a fitted effect of over 60% in size
Settings: KB-V1 MDR cells viability, CellTiter-Glo, 72 h; activity change, negative = cytotoxicity: at 46.1 µM (top of the series)
Procedure, shortened: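 Readout: CellTiter-Glo luminescence, 10 min after addition. Cells: KB-V1 MDR subline, 72 h at 37 degrees C with compound. Analysis: corrected, normalized data fitted to concentration-effect curves.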
% is scaled to controls: 0 for no effect and ±100 for the full control effect; potency is read from the fitted curve at half-maximal effect.

Row | Compound | Potency | activity change, negative = cytotoxicity
1 | COc1ccc(NC(=O)c2[nH]c(C)c(C(C)=O)c2C)cc1 | inconclusive: 13 µM [cytotoxic, partial curve] | 
2 | CCCCC(CC)C(=O)Nc1cc(C(=O)NCCC)ccc1N1CCC2(CC1)CC(c1ccccc1)=NO2 (stereo unspecified) | inactive | 
3 | CCOc1ccc(NC(=O)Cc2cccc3ccccc23)c([N+](=O)[O-])c1 | inconclusive: 13 µM [cytotoxic, partial curve] | 
4 | CCN(CC)S(=O)(=O)c1ccc(N2CCOCC2)c(NC(=O)CN2C(=O)NC(C)(c3ccccc3)C2=O)c1 (stereo unspecified) | inconclusive: 9.2 µM [rising, partial curve, poor fit] | 
5 | O=C(Nc1nnc(C2=COCCO2)o1)c1ccc(Cc2ccccc2)cc1 | inconclusive: 18.4 µM [cytotoxic, single point] | 
6 | Cn1c(SCC(=O)Nc2cccc(C(=O)O)c2)nnc1-c1cc2cc(Br)ccc2o1 | inactive | 
7 | Cc1ccc(N2CC(O)=C(c3nc4ccccc4c(=O)[nH]3)C2=N)cc1C | inactive | 
8 | CC1CCN(C(=O)CSc2nnc(CN3CCOCC3)n2-c2ccccc2)CC1 | inconclusive: 20.6 µM [cytotoxic, single point] | 
9 | CCN=C1SC(C(=O)Nc2cccc(OCC)c2)CC(=O)N1CC (stereo unspecified) | inconclusive: 18.4 µM [cytotoxic, single point] | 
10 | CC(=O)N1CCc2cc(S(=O)(=O)NC(C(=O)NC(C)c3ccccc3)C(C)C)ccc21 (stereo unspecified) | inconclusive: 29.1 µM [rising, single point] | 
11 | CCNc1nc2c(cnn2C)c(=O)[nH]1 | inactive | 
12 | COc1cc2[nH]c(=O)n(Cc3ccc(C(=O)NCc4ccc(C)cc4)cc3)c(=O)c2cc1OC | inconclusive: 13 µM [rising, partial curve] | 
13 | CCCc1c(C(=O)O)cnn1-c1ccc(Cl)cc1 | inconclusive: 29.1 µM [rising, partial curve, poor fit] | 
14 | O=C(O)CN1C(=O)/C(=C\c2cccc(OCc3ccc(F)cc3)c2)SC1=S | inconclusive: 18.4 µM [rising, single point] | 
15 | CN(C(=O)Cn1cnc2ccccc2c1=O)C1CCS(=O)(=O)C1 (stereo unspecified) |  | inconclusive: 34.4%
16 | CCCc1nc2ccc(C)cn2c1Cc1ccc(C)cc1 | inactive | 
17 | Cc1ccc(S(=O)(=O)Cc2ccc(C(=O)N3CCN(c4ccccn4)CC3)o2)cc1 | inconclusive: 32.6 µM [cytotoxic, single point] | 
18 | CCn1c(SCc2nc3scc(-c4ccccc4)c3c(=O)[nH]2)nnc1-c1ccc(Cl)cc1 | inconclusive: 2.31 µM [cytotoxic, partial curve, poor fit] | 
19 | CC(=O)c1ccc(-c2cccc(-c3nc4ccccn4c3NC3CCCCC3)c2)cc1 | inconclusive: 18.4 µM [cytotoxic, single point] | 
20 | Cc1ccc(C(=O)OCC(=O)Nc2cc(S(=O)(=O)N3CCOCC3)ccc2C)cc1 | inconclusive: 29.1 µM [rising, single point] | 
21 | O=C(OCc1cn([C@@H]2CN(C(=O)c3cccs3)[C@@H](c3ccccc3)C[C@H]2O)nn1)c1ccccc1 | inactive | 
22 | CC1Oc2ccccc2N(CC(=O)Nc2ccc3c(c2)OCO3)C1=O (stereo unspecified) | active: 20.6 µM | 
23 | O=C(COC(=O)c1cc([N+](=O)[O-])ccc1N1CCOCC1)Nc1ccc(Cl)cn1 | active: 13 µM | 
24 | O=C(Cn1c(=O)n(Cc2ccc(C(=O)NCc3ccc4c(c3)OCO4)cc2)c(=O)c2ccccc21)Nc1cccc(Cl)c1 | inconclusive: 32.6 µM [rising, single point] | 

Row | Compound | Potency | activity change, negative = cytotoxicity
25 | CC(Oc1ccc(Cl)cc1Cl)C(=O)NC1CCSC1=O (stereo unspecified) | inactive | 
26 | COC(=O)c1ccccc1NC(=O)C1CC(=O)N(c2ccc(C)c(C)c2)C1 (stereo unspecified) | active: 20.6 µM | 
27 | CCN1CCN(Cc2ccc(NC(=O)c3ccc(C)c(NC(=O)N4CCNC4=O)c3)cc2C(F)(F)F)CC1 | inconclusive: 29.1 µM [cytotoxic, single point] | 
28 | CC(C)Cn1c(SCC(=O)NC2CC2)nc2ccccc21 | inconclusive: 20.6 µM [cytotoxic, partial curve] | 
29 | Cc1cccc(NC(=O)CC2C(=O)NCCN2C(=S)Nc2ccccc2)c1 (stereo unspecified) | inactive | 
30 | Cc1cc(C)cc(C(O)c2ncc(-c3ccc(C(F)(F)F)cc3)[nH]2)c1 (stereo unspecified) | inactive | 
31 | O=C(O)c1cc(=O)c2ccccc2[nH]1 | inconclusive: 32.6 µM [cytotoxic, single point] | 
32 | O=C(Nc1cc2c(cc1Br)OCCCO2)c1ccccc1 | active: 20.6 µM | 
33 | COc1ccc(N(CC(=O)NCc2ccco2)S(C)(=O)=O)cc1Cl | inconclusive: 29.1 µM [cytotoxic, single point] | 
34 | CC1Cc2nc(SCC(=O)Nc3ccc4c(c3)OCCO4)n(C)c(=O)c2S1 (stereo unspecified) | inconclusive: 14.6 µM [cytotoxic, partial curve] | 
35 | Cc1ccccc1CN(C)CC(=O)Nc1ccccc1-c1ccccc1 | inconclusive: 13 µM [cytotoxic, partial curve] | 
36 | O=C(N/N=C/c1ccc([N+](=O)[O-])s1)c1ccccc1Br | inconclusive: 29.1 µM [cytotoxic, single point] | 
37 | COc1ccc(S(=O)(=O)NCc2ccccn2)cc1Br | inactive | 
38 | Cc1ccc(S(=O)(=O)N2CCN(C(=O)Cc3ccc4c(c3)OCCO4)CC2)cc1C | active: 4.11 µM | 
39 | Cc1ccc(NC(=O)COC(=O)c2cc(=O)c3ccccc3o2)cc1F | inconclusive: 20.6 µM [rising, single point] | 
40 | CC(=NNc1nc2ccccc2s1)c1ccncn1 | inconclusive: 29.1 µM [cytotoxic, single point] | 
41 | COC(=O)c1cc(Cc2ccc(N)c(C(=O)OC)c2)ccc1N | active: 20.6 µM | 
42 | CCc1oc2ccccc2c1C(=O)CCN1CCCCC1 | inactive | 
43 | Cc1ccccc1NC(=O)Nc1nnc(Cc2ccc([N+](=O)[O-])cc2)s1 | inactive | 
44 | CCc1ccc(Nc2cc(C)nc3ncnn23)cc1 | inconclusive: 16.4 µM [cytotoxic, single point] | 
45 | CC1(C)CCC[C@@]2(C)CC=C(C(=O)O)[C@@H]3C[C@]312 | inactive | 
46 | O=C(CC1(O)C(=O)c2ccccc2C1=O)c1ccccc1 | inconclusive: 29.1 µM [rising, single point] | 
47 | CCc1nc2ccc(C(=O)NCCc3ccc(OC)cc3OC)cc2nc1CC | inconclusive: 13 µM [cytotoxic, single point] | 
48 | COCCN1Cc2cccc(C(=O)Nc3cccc(-c4nc5ccccc5[nH]4)c3)c2C1=O | active: 10.3 µM | 

Reprinted at random: 2 entries already listed
Row | Compound | Potency | activity change, negative = cytotoxicity
31 | O=C(O)c1cc(=O)c2ccccc2[nH]1 | inconclusive: 32.6 µM [cytotoxic, single point] | 
35 | Cc1ccccc1CN(C)CC(=O)Nc1ccccc1-c1ccccc1 | inconclusive: 13 µM [cytotoxic, partial curve] | 

Additional records follow.

Row | Compound | Potency | activity change, negative = cytotoxicity
49 | Cc1nn(-c2ccccc2)c(NC(=O)c2cccs2)c(-c2ccccc2Cl)c1=O | inactive | 
50 | O=C(Nc1ccc(N2CCCC2)c(Cl)c1)c1cccs1 | inconclusive: 29.1 µM [cytotoxic, single point] | 
51 | CNCCOc1ccccc1C(C)(C)C | inconclusive: 13 µM [cytotoxic, partial curve] | 
52 | Cc1ccccc1Nc1nc(N)nc(CSc2nc3ccccc3c(=O)n2C)n1 | active: 16.4 µM | 
53 | CCOc1ccc(C(=O)NCCn2cc(SCC(=O)Nc3cc(C)on3)c3ccccc32)cc1 | inconclusive: 18.4 µM [cytotoxic, single point] | 
54 | COc1cccc(CSc2ccc(S(=O)(=O)N3CCOCC3)cc2C(=O)NCC2CCCO2)c1OC (stereo unspecified) | inconclusive: 11.6 µM [cytotoxic, partial curve] | 
55 | COc1ccc(NC(=O)C2(C)CCN2C(=O)CC2CCCC2)cc1OC (stereo unspecified) | inconclusive: 16.4 µM [cytotoxic, single point] | 
56 | CCc1ccc(C(=O)CN2C(=O)NC(C)(c3ccc(C)cc3)C2=O)cc1 (stereo unspecified) | inactive | 
57 | COCCN1Cc2cccc(C(=O)NCc3ccccc3OC)c2C1=O | inconclusive: 0.231 µM [cytotoxic, full curve] | 
58 | Cn1nc(C(C)(C)C)cc1C(=O)N1CCCCC1c1cc(C(=O)Nc2cccc3c2CCCC3)no1 (stereo unspecified) | inconclusive: 2.91 µM [cytotoxic, full curve] | 
59 | CCOc1ccc(CCNC(=O)c2cc(Nc3ccc(C)cc3C)nc3ccccc23)cc1OCC | inactive | 
60 | O=C(OCC#CCSc1nc2ccccc2s1)c1ccco1 | inconclusive: 20.6 µM [cytotoxic, single point] | 
61 | CCCOc1ccc(C(=O)Nn2c(C)nc3ccccc3c2=O)cc1 | inconclusive: 18.4 µM [cytotoxic, single point] | 
62 | Cn1c(=O)c2c(nc(N3CCOCC3)n2Cc2ccccc2)n(C)c1=O | inactive | 
63 | CCOC(=O)c1c(C)[nH]c(C)c1S(=O)(=O)N(C)CC(=O)N1CCN(c2cccc(Cl)c2)CC1 | inconclusive: 14.6 µM [cytotoxic, single point] | 
64 | Cc1cc(C(O)c2ncc(-c3ccccc3)[nH]2)ccc1F (stereo unspecified) | inactive | 
65 | COc1ccccc1C1/C(=C(/O)c2ccc(C)cc2)C(=O)C(=O)N1Cc1ccco1 (stereo unspecified) | inconclusive: 23.1 µM [cytotoxic, partial curve, poor fit] | 
66 | Cn1nnnc1SCC(=O)N1CCc2ccccc21 | inconclusive: 29.1 µM [cytotoxic, single point] | 
67 | c1ccc(-c2c(-c3ccccc3)n(Cc3ccco3)c3ncnc(NCCCn4ccnc4)c23)cc1 | inconclusive: 29.1 µM [cytotoxic, single point] | 
68 | CCOC(=O)N1CCC(NS(=O)(=O)c2cc3c(cc2Cl)NC(=O)CO3)CC1 | inactive | 
69 | COc1ccc(S(=O)(=O)Nc2cccc3c2O[C@H](CN(C)C)[C@@H](C)CN([C@H](C)CO)C3=O)cc1 | inactive | 
70 | COC(=O)C1C(c2ccccc2)C(C(=O)N2CCN(C)CC2)C1c1ccccc1 (stereo unspecified) | inconclusive: 4.11 µM [cytotoxic, full curve, poor fit] | 
71 | O=C(Cc1c(F)cccc1Cl)NC1CCN(Cc2ccccc2)CC1 | inconclusive: 23.1 µM [cytotoxic, partial curve, poor fit] | 

Entries 67 through 68 of the list above:
Row | Compound | Potency | activity change, negative = cytotoxicity
67 | c1ccc(-c2c(-c3ccccc3)n(Cc3ccco3)c3ncnc(NCCCn4ccnc4)c23)cc1 | inconclusive: 29.1 µM [cytotoxic, single point] | 
68 | CCOC(=O)N1CCC(NS(=O)(=O)c2cc3c(cc2Cl)NC(=O)CO3)CC1 | inactive | 
